Here are results for four molecules from article doi:10.1101/2021.01.08.425619.

The chains behind the UniProt entries cited, without tags or fusion partners.
UniProt Q24117: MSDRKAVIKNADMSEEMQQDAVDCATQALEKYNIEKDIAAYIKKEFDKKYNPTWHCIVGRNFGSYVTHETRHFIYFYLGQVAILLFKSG
UniProt P63168: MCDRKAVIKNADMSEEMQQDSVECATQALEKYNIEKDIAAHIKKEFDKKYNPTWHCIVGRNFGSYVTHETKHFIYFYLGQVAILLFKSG

The target of experiment [1] is FLAG-GFP tagged LC8 (Drosophila) (UniProt Q24117). The experiment is described as follows: affinity purification with mass spectrometry.
Experiment [2] addresses Mouse LC8/Dynll1, endogenously tagged (mouse) (UniProt P63168). The experiment is described as follows: affinity purification with mass spectrometry.

These are yes or no findings as the source states them, for the method shown. Binding seen in cells or lysates may run through a third protein. A yes stands for co-enrichment or nearness to the bait. Other partners may have been found.

B1: Sw (protein, UniProt Q24246 1-663)
chain: MDRKAELERKKAKLAALREEKDRRRREKEIKDMEEAAGRIGGGAGIDKDQRKDLDEMLSSLGVAPVSEVLSSLSSVNSMTSDNSNTQTPDASLQATVNGQSGGKKQPLNLSVYNVQATNIPPKETLVYTKQTQTTSTGGGNGDVLSCHSSPLSGYMEDWWRPRKAHATDYYDEYNLNPGLEWEDEFTDDEESSLQNLGNGFTSKLPPGYLTHGLPTVKDVAPAITPLEIKKETEVKKEVNELSEEQKQMIILSENFQRFVVRAGRVIERALSENVDIYTDYIGGGDSEEANDERSHARLSLNRVFYDERWSKNRCITSMDWSTHFPELVVGSYHNNEESPNEPDGVVMVWNTKFKKSTPEDVFHCQSAVMSTCFAKFNPNLILGGTYSGQIVLWDNRVQKRTPIQRTPLSAAAHTHPVYCLQMVGTQNAHNVISISSDGKLCSWSLDMLSQPQDTLELQQRQSKAIAITSMAFPANEINSLVMGSEDGYVYSASRHGLRSGVNEVYERHLGPITGISTHYNQLSPDFGHLFLTSSIDWTIKLWSLKDTKPLYSFEDNSDYVMDVAWSPVHPALFAAVDGSGRLDLWNLNQDTEVPTASIVVAGAPALNRVSWTPSGLHVCIGDEAGKLYVYDVAENLAQPSRDEWSRFNTHLSEIKMNQSDEV
Regarding B1, the binding entry in experiment [1] was “binds”.

B2: Ana2 (protein, UniProt Q9XZ31 1-420)
chain: MFVPETEDMLPRLAPRPSAAVPMGHTNEIIGPTVPEVSILFGQPPQDPQMQPQQPNHAHQESSPRAAPTFASWKKQMLPRVNFSPILATELGPRTAPSSNSPCSSKEYQVMPRDRNYASDAQQTTNHMNCNAGGYNAEPKQQAYQSRRLSSSSNADVLTICAGTQTDPFNPSPPRKSLPQVVYSDIDVSNLANKSDLAALVSLVESVRHEQQQLRNLCEMILEQQQRAKPEAISKASSTTGTQCDILTTNQAGRRLSPIMQDYIAEEEEPLPPPQARVIPQFPSPRPHPPIAQSTGYRANTPQAKRIPQLAKPNTEKSMVMNELALKYLRQPVDELMKDMRLGASPKSPNPEPLRPIDNIGHAQSPNDISNASYKYLKKYRLLPEEQLEPVCPQSPMAATAPSPHIQLDLENIRNQPKLL
Turning to B2, in experiment [1], the binding result is on record as “binds”.

B3: Dlc90F (protein, UniProt Q94524 1-111)
chain: MDDSREESQFIVDDVSKTIKEAIETTIGGNAYQHDKVNNWTGQVVENCLTVLTKEQKPYKYIVTAMIMQKNGAGLHTASSCYWNNDTDGSCTVRWENKTMYCIVSVFGLAV
B3: the binding entry in experiment [1] is on record as “binds”.

B4: Zmym2 (protein, UniProt Q9CU65 1-1376)
chain: MDTSSVGTLELTDQTPVLLGSTAMATSLTNVGNSFSGPPNPLVSRSSKFQNSSVEDDDDVVFIEPVQPPPSSAPLVADQRPITFTSSKNEELQGNDPKILPSSKELAPQKGSVSETIVIDDEEDMETNQGQEKSSSNFIERRPSETKNRTNDVDFSSSTFSRSKVNAGVSNSGITTEPDSEIQIANVTTLETGVSSVSDGQLESTDGRDMNLMITHVTSLHNTSLGDGSNGLQSSNFGVNIQTYTPSLTSQTKAGVGPFNPGRMNVAGDVFQNGESAPHHNPDSWISQSASFPRNQKQQGVDSLSPVASLPKQIFQPSNQQPTKPVKVTCANCKKPLQKGQTAYQRKGSAHLFCSTTCLSSFSHKPAPKKLCVMCKKDITTMKGTIVAQVDSSESFQEFCSTSCLSLYEDKQSPAKGALNKSRCTICGKLTEIRHEVSFKNMTHKLCSDHCFNRYRMANGLIMNCCEQCGEYLPSKGAGNNVLVVDGQQKRFCCQSCVTEYKQVGSHPSFLKEVRDHMQDSFLMQPEKYGKLTTCTGCRTQCRFFDMTQCIGPNGYMEPYCSTACMNSHKTKYAKSQSLGIICHFCKRNSLPQYQATMPDGKLYNFCNSSCVAKFQALSMQSSPNGQFVAPSDIQLKCNYCKNSFCSKPEILEWENKVHQFCSKTCSDDYKKLHCIVTYCEYCQEEKTLHETVNFSGVKRPFCSEGCKLLYKQDFARRLGLRCVTCNYCSQLCKKGATKELDGVVRDFCSEDCCKKFQEWYYKAARCDCCKSQGTLKERVQWRGEMKHFCDQHCLLRFYCQQNEPNMTTQKGPENLHYDQGCQTSRTKMTGSAPPPSPTPNKEMKNKAILCKPLTMTKATYCKPHMQTKSCQTDENWKTEYVPVPIPVPVYVPVPMHMYSQNIPVPTTVPVPVPVPVFLPAPLDSSEKIPATVEDLKSKVSSDPLDSELLTMTDMMTEEEGKAEASNINSVIIETDIIGSDLTKNSDPDIQSNMPDVPYEPDLDIEIDFPRAAEELDMENEFLLPPVFGEEYEEQPRPRSKKKGTKRKAVSGYQSHDDSSDNSECSFPFKYTYGVNAWKHWVKTRQLDEDLLVLDELKSSKSVKLKEDLLSHTTAELNYGLAHFVNEIRRPNGENYAPDSIYYLCLGIQEYLCGSNRKDNIFIDPGYQMFEQELNKILRSWQPSILPDGSIFSRVEEDYLWRIKQLGSHSPVALLNTLFYFNTKYFGLKTVEQHLRLSFGTVFRHWKKNPLTMENKACLRYQVSSLCGTDNEDKIATGKRKHEDDEPVFEQVENTANPSRCPVKMFECYLSKSPQNLNQRMDVFYLQPECSSSTDSPVWYTSTSLDRNTLENMLVRVLLVKDIYDKDNYELDEDTD
As for B4, the binding result in experiment [2] was “binds”.
